We go through one molecule from paper PMC3506659, “Snm1B Interacts with PSF2” (PLoS ONE, 2012).

Sequences of proteins named here, by UniProt entry; tags and fusion partners are left off. A change or cut given only in a name is not applied to a line headed by its entry.
UniProt Q9H816: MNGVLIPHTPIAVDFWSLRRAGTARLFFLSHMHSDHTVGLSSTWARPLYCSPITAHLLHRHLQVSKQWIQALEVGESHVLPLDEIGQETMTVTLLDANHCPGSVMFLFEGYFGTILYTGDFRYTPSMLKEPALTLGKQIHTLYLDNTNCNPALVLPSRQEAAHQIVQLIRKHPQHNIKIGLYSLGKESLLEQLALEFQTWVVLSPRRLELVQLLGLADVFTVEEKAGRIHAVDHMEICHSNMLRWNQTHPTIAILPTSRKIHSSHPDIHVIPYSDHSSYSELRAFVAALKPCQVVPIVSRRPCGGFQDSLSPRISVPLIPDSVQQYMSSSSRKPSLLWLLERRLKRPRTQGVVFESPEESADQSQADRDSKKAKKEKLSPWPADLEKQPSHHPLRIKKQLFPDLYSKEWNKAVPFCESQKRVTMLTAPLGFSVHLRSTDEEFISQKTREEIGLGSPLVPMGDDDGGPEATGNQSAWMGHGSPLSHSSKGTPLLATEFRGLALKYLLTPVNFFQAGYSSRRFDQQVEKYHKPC

Results are given in words; binding and its absence hold for the method and conditions named. Binding seen in cells or lysates may run through a third protein. A result given as binding can be weak or reduced; the word gives no strength. Tags and fused reporters may be left off the sequences shown.

For the experiment, the target named is N2 mutant of Flag-Snm1B (Flag-Snm1B^N2) (human) (UniProt Q9H816). Briefly: co-IP; competition: 293T co-transfected with Flag-Snm1B (WT or N2), Myc-PSF2 and/or Myc-TRF2 (WT or F120A); RIPA lysate, anti-Flag immunoprecipitation, immunoblot anti-Myc; Myc-PSF2:Flag-Snm1B ratio by ImageJ. Background: Immunoblotting shows a protein as a band on a membrane.

B1: N-terminal Myc epitope-tagged human PSF2 (Myc-PSF2) (natural protein, UniProt Q9Y248 1-185, looked up)
chain: MDAAEVEFLAEKELVTIIPNFSLDKIYLIGGDLGPFNPGLPVEVPLWLAINLKQRQKCRLLPPEWMDVEKLEKMRDHERKEETFTPMPSPYYMELTKLLLNHASDNIPKADEIRTLVKDMWDTRIAKLRVSADSFVRQQEAHAKLDNLTLMEINTSGTFLTQALNHMYKLRTNLQPLESTQSQDF
notes: PSF2, subunit of the GINS complex, human, full length; amplified from clone MGC-673 (ATCC); source: 293T, transiently transfected (pCMV-MYC), in lysate; not shown: Myc, N-terminal, kept
Turning to B1, the binding entry is recorded as “binds”.
